{"source": "PubChem BioAssay AID493014", "about": "(National Center for Advancing Translational Sciences (NCATS), 2011)", "assay": "qHTS Assay to Find Inhibitors of Chronic Active B-Cell Receptor Signaling", "conditions": "ABC-DLBCL IkBa-CBG/CBR reporter, luminescence ratio (green luciferase fused to IkBa over red control in TMD8 lymphoma cells), 4 h", "procedure,_shortened": "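TMD8 ABC-DLBCL cells carrying doxycycline-inducible green luciferase fused to IkappaBalpha plus unfused red luciferase were exposed to compounds (up to 46 uM) for 4 hrs at 37C. Activity came from the overlap-corrected green/red luminescence ratio.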", "key": {"[1]": {"conditions": "measured here: CBR red luminescence, cell number"}, "[2]": {"conditions": "measured here: IkBa-CBG green luminescence"}}, "note": "The list shows a part of the results. Shown are side measurements of this screen, not its main read-out; they come without a call. The list favours compounds with an active or inconclusive main result. Words in brackets tell the shape of the fitted curve; partial curves, single points and poor fits give uncertain potencies.", "data": [{"smiles": "CCOC(=O)C1=C(COC(=O)/C=C/c2cc(OC)c(OC)c(OC)c2)NC(=O)NC1C", "note": "(stereo not given)", "values": [{"measurement": "AC50", "setting": "[1]", "value": "12.6 µM [rising, partial curve]"}]}, {"smiles": "Cc1oc2ccc(OCc3ccccc3Cl)cc2c1C(=O)O", "values": [{"measurement": "AC50", "setting": "[1]", "value": "0.562 µM [rising, full curve, poor fit]"}]}, {"smiles": "Cc1cccc2sc(NC(=O)[C@H](C)N3C(=O)C4CC=CCC4C3=O)nc12", "note": "(stereo not given in full)", "values": [{"measurement": "AC50", "setting": "[1]", "value": "3.98 µM [falling, single point]"}]}, {"smiles": "O=C(c1c(Cl)nc2sccn12)N(C(=O)c1c(Cl)nc2sccn12)c1ccc(Cl)cn1", "values": [{"measurement": "AC50", "setting": "[1]", "value": "1.84 µM [rising, partial curve]"}]}, {"smiles": "Cc1cc(Cl)n2c(nc3ccccc32)c1C#N", "values": [{"measurement": "AC50", "setting": "[2]", "value": "2 µM [falling, partial curve, poor fit]"}]}, {"smiles": "Cn1nnc2cc(C(=O)Nc3ccccc3F)ccc21", "values": [{"measurement": "AC50", "setting": "[1]", "value": "7.94 µM [falling, partial curve]"}]}, {"smiles": "CC(C(=O)N1CCc2ccccc21)N1CCN(c2ccccn2)CC1", "note": "(stereo not given)", "values": [{"measurement": "AC50", "setting": "[1]", "value": "0.82 µM [rising, full curve, poor fit]"}]}, {"smiles": "COc1ccccc1NS(=O)(=O)c1cc(NC(=O)COc2ccccc2)ccc1N1CCOCC1", "values": [{"measurement": "AC50", "setting": "[1]", "value": "18.4 µM [falling, partial curve, poor fit]"}]}, {"smiles": "O=[N+]([O-])c1ccc(/C=N/N=C/c2ccc([N+](=O)[O-])o2)o1", "values": [{"measurement": "AC50", "setting": "[1]", "value": "0.794 µM [rising, partial curve, poor fit]"}]}, {"smiles": "N=c1oc2ccccc2cc1C(=O)Nc1ccc(F)cc1", "values": [{"measurement": "AC50", "setting": "[1]", "value": "12.6 µM [falling, partial curve, poor fit]"}]}, {"smiles": "COc1ccccc1CNC(=O)CS(=O)Cc1nc(-c2ccc(OC)c(OC)c2)oc1C", "note": "(stereo not given)", "values": [{"measurement": "AC50", "setting": "[1]", "value": "6.31 µM [rising, partial curve, poor fit]"}]}, {"smiles": "O=C1C(Cl)=C(N2CCOCC2)C(=O)N1c1cccc(C(F)(F)F)c1", "values": [{"measurement": "AC50", "setting": "[1]", "value": "22.4 µM [falling, partial curve, poor fit]"}]}, {"smiles": "O=C(Nc1ccc(Cl)c(Cl)c1)Nc1ccccc1C(=O)O", "values": [{"measurement": "AC50", "setting": "[1]", "value": "1.58 µM [falling, full curve]"}]}, {"smiles": "Fc1cccc(CNc2ncnc3ccc(-c4cccnc4)cc23)c1", "values": [{"measurement": "AC50", "setting": "[1]", "value": "29.1 µM [rising, single point]"}]}, {"smiles": "O=C(CN1C(=O)c2ccccc2S1(=O)=O)NCc1ccccc1Cl", "values": [{"measurement": "AC50", "setting": "[1]", "value": "13 µM [rising, partial curve, poor fit]"}]}, {"smiles": "CCN(CC)C(=O)c1ccc(S(=O)(=O)Cc2ccc(C)cc2)c([N+](=O)[O-])c1", "values": [{"measurement": "AC50", "setting": "[1]", "value": "6.31 µM [falling, full curve]"}]}, {"smiles": "CC1CCCN(CCCNC(=O)c2ccc3c(c2)N(Cc2ccc(F)cc2)C(=O)c2ccccc2S3=O)C1", "note": "(stereo not given)", "values": [{"measurement": "AC50", "setting": "[1]", "value": "12.6 µM [falling, partial curve, poor fit]"}]}, {"smiles": "CN(Cc1ccc(F)cc1)C(=O)c1cccc(OC2CCN(C3CCCC3)CC2)c1", "values": [{"measurement": "AC50", "setting": "[1]", "value": "35.5 µM [falling, single point]"}]}, {"smiles": "CCOC(=O)c1cnc2c(OC)cccc2c1Nc1ccc2c(c1)OCCO2", "values": [{"measurement": "AC50", "setting": "[1]", "value": "32.6 µM [rising, single point]"}]}, {"smiles": "CC(=O)c1ccc(-c2ccc(-c3cc(=O)oc4c(C(C)C)ccc(C)c34)cc2)cc1", "values": [{"measurement": "AC50", "setting": "[1]", "value": "16.4 µM [rising, partial curve, poor fit]"}]}, {"smiles": "Oc1cccc(C(Nc2nccs2)c2ccc3cccnc3c2O)c1", "note": "(stereo not given)", "values": [{"measurement": "AC50", "setting": "[1]", "value": "15.8 µM [falling, single point]"}, {"measurement": "AC50", "setting": "[2]", "value": "25.1 µM [rising, partial curve, poor fit]"}]}, {"smiles": "Cc1cccc(C)c1OCC(=O)NCc1nnc(SCC(=O)NC2CCCCC2C)n1C", "note": "(stereo not given)", "values": [{"measurement": "AC50", "setting": "[1]", "value": "6.51 µM [rising, single point]"}]}, {"smiles": "COc1ccccc1N(CC(=O)Nc1cccnc1)S(=O)(=O)c1ccccc1", "values": [{"measurement": "AC50", "setting": "[1]", "value": "0.316 µM [falling, full curve, poor fit]"}]}, {"smiles": "O=C(NC1CCCC1)C1C2C=CC3(CN(Cc4cccs4)C(=O)C13)O2", "note": "(stereo not given)", "values": [{"measurement": "AC50", "setting": "[1]", "value": "0.231 µM [rising, full curve, poor fit]"}]}, {"smiles": "COc1ccc(Cc2nnc(N/N=C/c3ccccc3O)[nH]c2=O)cc1OC", "values": [{"measurement": "AC50", "setting": "[1]", "value": "7.31 µM [falling, partial curve]"}]}, {"smiles": "Cc1c(O)ccc(C(=O)COc2ccccc2F)c1O", "values": [{"measurement": "AC50", "setting": "[1]", "value": "7.08 µM [rising, partial curve, poor fit]"}]}, {"smiles": "COc1ccc(C2Nc3ccccc3C(=O)N2Cc2ccccc2)cc1COc1ccccn1", "note": "(stereo not given)", "values": [{"measurement": "AC50", "setting": "[1]", "value": "17.8 µM [falling, single point]"}]}, {"smiles": "COC(=O)c1ccc(-c2ncc(-c3cccc4ccccc34)o2)cc1", "values": [{"measurement": "AC50", "setting": "[1]", "value": "0.0891 µM [falling, full curve, poor fit]"}]}, {"smiles": "O=C(NNC(=O)c1c(O)c2ccccc2[nH]c1=O)c1ccccc1", "values": [{"measurement": "AC50", "setting": "[1]", "value": "1.41 µM [falling, full curve]"}]}, {"smiles": "COc1cc(C(=O)/C=C/Nc2ccc(NC(C)=O)cc2)cc(OC)c1OC", "values": [{"measurement": "AC50", "setting": "[1]", "value": "23.1 µM [rising, partial curve, poor fit]"}, {"measurement": "AC50", "setting": "[2]", "value": "16.4 µM [falling, single point]"}]}, {"smiles": "CC(C)(C)c1ccc(C2C3=C(CCCC3=O)NC3=C2C(=O)c2ccccc23)cc1", "note": "(stereo not given)", "values": [{"measurement": "AC50", "setting": "[1]", "value": "35.5 µM [falling, partial curve, poor fit]"}]}, {"smiles": "Cc1oc(-c2nc3ccccc3n2C)cc1C(=O)c1ccccc1", "values": [{"measurement": "AC50", "setting": "[1]", "value": "29.1 µM [falling, single point]"}]}, {"smiles": "C[C@]12c3[nH]c4ccccc4c3CCN1C(=O)C(CC(=O)NCC13CC4CC(CC(C4)C1)C3)C[C@@H]2C(=O)N1CCOCC1", "note": "(stereo not given in full)", "values": [{"measurement": "AC50", "setting": "[1]", "value": "32.6 µM [falling, single point]"}]}, {"smiles": "O=S(=O)(NC1CCN(S(=O)(=O)c2ccc3c(c2)OCCO3)C1)c1c(F)cccc1F", "note": "(stereo not given)", "values": [{"measurement": "AC50", "setting": "[1]", "value": "1.64 µM [rising, full curve, poor fit]"}]}, {"smiles": "C(=N/Nc1nc(-c2ccccc2)cc(-c2ccccc2)n1)/c1cccnc1", "values": [{"measurement": "AC50", "setting": "[1]", "value": "2.06 µM [falling, partial curve]"}]}, {"smiles": "COC(=O)[C@H](Cc1ccc(O)cc1)NC(=O)Cn1cnc2c(OCc3ccccc3)ncnc21", "values": [{"measurement": "AC50", "setting": "[1]", "value": "16.4 µM [rising, partial curve, poor fit]"}]}, {"smiles": "CC(C)[C@H](NC(=O)c1ccccc1)C(=O)OCC(=O)NCCc1ccc(F)cc1", "values": [{"measurement": "AC50", "setting": "[1]", "value": "5.17 µM [rising, full curve, poor fit]"}]}, {"smiles": "CC(C)C[C@H](NC(=O)N1CCn2c1nc1ccccc12)C(=O)NCc1ccco1", "values": [{"measurement": "AC50", "setting": "[1]", "value": "35.5 µM [falling, single point]"}]}]}
